Assay in all cases: pull-down
In data set [1] the target is SFPQ (Homo sapiens) (UniProt P23246). Particulars: Ramos cells, affinity purification and MS; may be indirect; protein in an extract; label: biotin; single-stranded DNA.
Data set [2] addresses H2AFJ (Histone H2A.J) (Homo sapiens) (UniProt Q9BTM1). Conditions: Ramos cells, affinity purification and MS; may be indirect; protein in an extract; label: biotin; single-stranded DNA.
Data set [3] has as its target HIST1H1D (Histone H1.3) (Homo sapiens) (UniProt P16402). Particulars: Ramos cells, affinity purification and MS; may be indirect; protein in an extract; label: biotin; single-stranded DNA.
Data set [4] has as its target HIST1H1B (Histone H1.5) (Homo sapiens) (UniProt P16401). Particulars: Ramos cells, affinity purification and MS; may be indirect; protein in an extract; label: biotin; single-stranded DNA.
Data set [5] deals with T1, Fibrillarin (FBL) (Homo sapiens) (UniProt P22087).
T1 sequence (looked up, limits assumed): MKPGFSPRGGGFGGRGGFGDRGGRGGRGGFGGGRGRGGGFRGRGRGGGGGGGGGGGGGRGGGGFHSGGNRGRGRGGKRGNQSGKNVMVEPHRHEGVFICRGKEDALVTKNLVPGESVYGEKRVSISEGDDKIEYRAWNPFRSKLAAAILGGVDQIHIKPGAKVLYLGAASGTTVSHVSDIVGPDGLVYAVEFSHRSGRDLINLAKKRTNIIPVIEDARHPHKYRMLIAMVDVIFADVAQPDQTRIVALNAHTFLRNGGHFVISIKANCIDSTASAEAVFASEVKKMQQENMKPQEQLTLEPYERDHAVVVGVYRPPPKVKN
Conditions: Ramos cells, affinity purification and MS; may be indirect; protein in an extract; label: biotin; single-stranded DNA.

Data set [6] has as its target NONO (Homo sapiens) (UniProt Q15233). Particulars: Ramos cells, affinity purification and MS; may be indirect; protein in an extract; label: biotin; single-stranded DNA.
The target of data set [7] is RPL12 (Homo sapiens) (UniProt P30050). Particulars: Ramos cells, affinity purification and MS; may be indirect; protein in an extract; label: biotin; single-stranded DNA.
In data set [8] the target is Histone H4 (HIST1H4A) (Homo sapiens) (UniProt P62805). Particulars: Ramos cells, affinity purification and MS; may be indirect; protein in an extract; label: biotin; single-stranded DNA.
In data set [9] the target is T2, SSBP1 (Homo sapiens) (UniProt Q04837).
T2 sequence (looked up, limits assumed): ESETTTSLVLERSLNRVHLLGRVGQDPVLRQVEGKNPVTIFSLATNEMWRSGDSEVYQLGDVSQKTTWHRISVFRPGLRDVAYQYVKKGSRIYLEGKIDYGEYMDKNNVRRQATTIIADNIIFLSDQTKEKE
Conditions: Ramos cells, affinity purification and MS; may be indirect; protein in an extract; label: biotin; single-stranded DNA.

The target of data set [10] is T3, DDX21 (Nucleolar RNA helicase 2) (Homo sapiens) (UniProt Q9NR30).
T3 sequence (looked up, limits assumed): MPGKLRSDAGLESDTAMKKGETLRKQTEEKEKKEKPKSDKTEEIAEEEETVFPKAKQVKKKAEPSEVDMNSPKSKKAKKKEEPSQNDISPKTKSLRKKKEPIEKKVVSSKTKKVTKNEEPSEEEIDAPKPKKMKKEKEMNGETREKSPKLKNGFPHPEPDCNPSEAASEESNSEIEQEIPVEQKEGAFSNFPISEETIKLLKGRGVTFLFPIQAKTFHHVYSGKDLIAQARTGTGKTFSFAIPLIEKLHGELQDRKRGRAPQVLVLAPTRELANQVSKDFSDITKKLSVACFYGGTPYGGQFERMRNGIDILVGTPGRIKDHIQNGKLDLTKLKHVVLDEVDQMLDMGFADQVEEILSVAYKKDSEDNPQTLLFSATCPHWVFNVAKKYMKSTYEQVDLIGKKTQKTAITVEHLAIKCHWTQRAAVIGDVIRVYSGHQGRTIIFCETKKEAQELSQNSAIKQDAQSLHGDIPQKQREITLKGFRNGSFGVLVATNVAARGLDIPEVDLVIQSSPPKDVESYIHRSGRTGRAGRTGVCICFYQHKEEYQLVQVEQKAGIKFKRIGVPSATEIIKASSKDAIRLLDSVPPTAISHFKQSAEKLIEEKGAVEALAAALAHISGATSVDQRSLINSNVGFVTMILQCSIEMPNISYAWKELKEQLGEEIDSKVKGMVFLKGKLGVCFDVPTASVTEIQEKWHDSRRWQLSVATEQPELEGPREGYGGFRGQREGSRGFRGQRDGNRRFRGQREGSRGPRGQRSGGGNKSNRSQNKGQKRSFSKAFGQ
Particulars: Ramos cells, affinity purification and MS; may be indirect; protein in an extract; label: biotin; single-stranded DNA.

Data set [11] addresses Nucleolin (NCL) (Homo sapiens) (UniProt P19338). Conditions: protein in an extract, label: biotin, single-stranded DNA.
The target of data set [12] is PARP1 (Homo sapiens) (UniProt P09874). Particulars: Ramos cells, affinity purification and MS; may be part of RNP complex; protein in an extract; label: biotin; single-stranded DNA.
Data set [13] concerns Complement C1q (subunits A/B/C) (Homo sapiens). Particulars: protein in an extract, single-stranded DNA.
Setting [14] is: listed as anti-C1q oligonucleotide, values not in text.

Results from cells or extracts need not show a direct contact. For some assays here: Negatives hold for the conditions tested. The exact form of at least one protein or probe is not confirmed. For some assays here: Protein sequences can lack the tags named with them.

Data on six sequences can be found in patent publication US20240140978.

“CTAACCCCGGGTGTGGTGGGTGGGCAGGGGGGTTAG [10.36 (C10.36)]”: the binding result in [1], in data set [2], in [3], in data set [4], in [5] and in [6] was “binds” each time. For the same sequence, the binding result in data set [7] is reported as “binds”; in data set [8] it was “binds”; in [9], “binds”; in data set [10], “binds”; in data set [11] (Ramos cells, affinity purification and MS, enriched Ramos over Jurkat), “binds”; in data set [12] it was “binds”.

Take “CTAGCATGACTGCAGTACGTAACCCAATTCACATACACTCTCACCCCCACTAAACACTGTCTCTTATACACATCTGACGCTGCCGACGA [83S-B11 Full]”: the binding result in data set [13] (setting [14]) is reported as “binds”.

Turning to “CTAGCATGACTGCAGTACGTACTATAGAACAATCCACCGCTTTAAATCAACTATCTTACTGTCTCTTATACACATCTGACGCTGCCGACGA [83s_B1 Full]”, the binding result in data set [13] (anti-C1q oligonucleotide, targets identified by mass spectrometry from plasma) is recorded as “binds”.

Regarding “CTAGCATGACTGCAGTACGTGATTTTAAAACCCTTGCACCTGATTGTGCCAATCCACTGTCTCTTATACACATCTGACGCTGCCGACGA [83s-B6 Full]”, the binding result in [13] (setting [14]) was “binds”.

For “CTAGCATGACTGCAGTACGTTACCCCTGACAATCCTCGCGCCGAGGCCTCCATCCTGACTGTCTCTTATACACATCTGACGCTGCCGACGA [83S-B4 Full]”, the binding result in data set [13] (setting [14]) was “binds”.

In the case of GGTGGTGGTGGTTGTGGTGGTGGTGG [AS1411], the binding result in [11] (no detectable binding to Ramos or Jurkat cells in affinity purification, immobilized aptamer) was “no binding”.
